From patent US4394382A, “Dihydrobenzopyran compounds and pharmaceutical composition comprising said compounds” (Kowa Company, Ltd., priority 1980, dated 1983)
Counter-ions that a name gives are not always drawn.

System: potassium contracture, left circumflex branch (coronary artery)
Test: isolated coronary artery, action on potassium contracture (Magnus method)
Settings: dog coronary artery, 50% inhibition of maximum reaction, reciprocal logarithm of molar concentration
Experimental: Each of the test drugs was used in a concentration of 10^-9 to 4×10^-4 mole/1000 ml (M). (3) Isolated coronary artery Using the left circumflex branch of a dog, the action of the test drugs on potassium contracture was examined.

Compound: CC(C)NCC(O)COc1cccc2ccccc12 (stereo not shown) [Comparative drug I, propranolol hydrochloride, reference compound]
- (3) pD'2: 4.1
